The other results are listed elsewhere or left out.

Protein sequences, listed by entry. Tags and fused reporters are not part of them. Lines headed by an entry give the natural chain unless they say otherwise; changes in a name come on top.
UniProt P01011: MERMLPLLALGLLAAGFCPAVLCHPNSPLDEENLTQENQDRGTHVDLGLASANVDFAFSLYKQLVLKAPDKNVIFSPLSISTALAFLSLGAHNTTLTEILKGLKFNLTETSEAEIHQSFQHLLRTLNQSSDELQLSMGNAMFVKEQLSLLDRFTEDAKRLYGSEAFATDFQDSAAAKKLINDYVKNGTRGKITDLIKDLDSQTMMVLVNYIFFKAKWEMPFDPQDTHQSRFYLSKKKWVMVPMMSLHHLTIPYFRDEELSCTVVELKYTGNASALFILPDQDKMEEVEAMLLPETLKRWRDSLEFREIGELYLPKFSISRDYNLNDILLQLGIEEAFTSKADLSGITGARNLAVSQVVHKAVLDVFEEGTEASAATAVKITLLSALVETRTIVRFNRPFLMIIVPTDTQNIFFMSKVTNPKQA
UniProt Q9UPX8: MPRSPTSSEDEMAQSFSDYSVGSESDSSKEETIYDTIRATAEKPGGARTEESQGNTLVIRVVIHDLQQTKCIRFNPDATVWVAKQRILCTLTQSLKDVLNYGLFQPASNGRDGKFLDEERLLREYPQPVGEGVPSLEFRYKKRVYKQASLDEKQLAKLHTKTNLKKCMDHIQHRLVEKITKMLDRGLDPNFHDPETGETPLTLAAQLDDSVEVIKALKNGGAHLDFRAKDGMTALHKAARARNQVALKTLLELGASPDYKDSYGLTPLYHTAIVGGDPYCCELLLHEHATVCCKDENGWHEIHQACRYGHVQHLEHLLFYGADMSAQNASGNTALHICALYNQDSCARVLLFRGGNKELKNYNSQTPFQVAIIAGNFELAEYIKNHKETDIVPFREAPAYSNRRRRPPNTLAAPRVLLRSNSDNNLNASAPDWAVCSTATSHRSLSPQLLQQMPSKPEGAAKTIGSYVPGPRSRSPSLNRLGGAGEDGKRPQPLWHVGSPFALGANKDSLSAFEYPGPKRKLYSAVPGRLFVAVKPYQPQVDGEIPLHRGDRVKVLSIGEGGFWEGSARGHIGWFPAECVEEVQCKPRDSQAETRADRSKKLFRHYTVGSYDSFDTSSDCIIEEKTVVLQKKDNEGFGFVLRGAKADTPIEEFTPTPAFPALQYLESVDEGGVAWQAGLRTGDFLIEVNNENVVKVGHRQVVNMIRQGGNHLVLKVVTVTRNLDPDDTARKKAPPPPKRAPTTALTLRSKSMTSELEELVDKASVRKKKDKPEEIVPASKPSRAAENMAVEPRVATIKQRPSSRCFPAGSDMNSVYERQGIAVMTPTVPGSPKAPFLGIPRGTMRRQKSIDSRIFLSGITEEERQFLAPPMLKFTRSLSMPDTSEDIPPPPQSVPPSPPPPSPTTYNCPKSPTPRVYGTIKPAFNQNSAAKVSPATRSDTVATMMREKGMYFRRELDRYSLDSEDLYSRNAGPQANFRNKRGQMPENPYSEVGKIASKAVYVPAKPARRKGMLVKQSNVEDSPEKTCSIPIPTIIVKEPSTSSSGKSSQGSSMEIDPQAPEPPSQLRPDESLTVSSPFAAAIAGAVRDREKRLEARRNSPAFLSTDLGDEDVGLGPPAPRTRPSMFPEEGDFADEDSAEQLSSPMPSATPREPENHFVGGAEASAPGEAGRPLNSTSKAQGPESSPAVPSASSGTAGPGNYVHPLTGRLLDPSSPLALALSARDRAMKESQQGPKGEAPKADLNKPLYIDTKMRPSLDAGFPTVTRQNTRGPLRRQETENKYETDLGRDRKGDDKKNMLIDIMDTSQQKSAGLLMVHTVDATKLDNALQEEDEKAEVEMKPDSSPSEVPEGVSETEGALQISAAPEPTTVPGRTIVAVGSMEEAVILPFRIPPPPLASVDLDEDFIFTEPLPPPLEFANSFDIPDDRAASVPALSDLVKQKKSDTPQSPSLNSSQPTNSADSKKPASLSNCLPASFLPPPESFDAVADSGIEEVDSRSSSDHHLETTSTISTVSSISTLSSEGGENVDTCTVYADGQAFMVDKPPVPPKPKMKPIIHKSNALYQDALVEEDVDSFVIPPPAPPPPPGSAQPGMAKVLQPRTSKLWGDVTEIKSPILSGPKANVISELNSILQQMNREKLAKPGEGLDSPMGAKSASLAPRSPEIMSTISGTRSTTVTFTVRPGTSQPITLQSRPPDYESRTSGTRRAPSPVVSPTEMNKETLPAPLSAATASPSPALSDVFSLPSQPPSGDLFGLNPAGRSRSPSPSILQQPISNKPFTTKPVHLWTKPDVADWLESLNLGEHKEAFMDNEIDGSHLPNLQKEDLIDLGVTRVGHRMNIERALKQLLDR
UniProt P55822: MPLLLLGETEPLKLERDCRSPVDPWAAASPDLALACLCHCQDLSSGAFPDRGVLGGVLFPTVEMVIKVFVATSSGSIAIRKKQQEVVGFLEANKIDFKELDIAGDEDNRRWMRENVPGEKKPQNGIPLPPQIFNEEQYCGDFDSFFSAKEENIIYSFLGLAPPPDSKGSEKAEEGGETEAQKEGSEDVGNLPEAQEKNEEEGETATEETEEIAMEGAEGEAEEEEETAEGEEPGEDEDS
UniProt P05546: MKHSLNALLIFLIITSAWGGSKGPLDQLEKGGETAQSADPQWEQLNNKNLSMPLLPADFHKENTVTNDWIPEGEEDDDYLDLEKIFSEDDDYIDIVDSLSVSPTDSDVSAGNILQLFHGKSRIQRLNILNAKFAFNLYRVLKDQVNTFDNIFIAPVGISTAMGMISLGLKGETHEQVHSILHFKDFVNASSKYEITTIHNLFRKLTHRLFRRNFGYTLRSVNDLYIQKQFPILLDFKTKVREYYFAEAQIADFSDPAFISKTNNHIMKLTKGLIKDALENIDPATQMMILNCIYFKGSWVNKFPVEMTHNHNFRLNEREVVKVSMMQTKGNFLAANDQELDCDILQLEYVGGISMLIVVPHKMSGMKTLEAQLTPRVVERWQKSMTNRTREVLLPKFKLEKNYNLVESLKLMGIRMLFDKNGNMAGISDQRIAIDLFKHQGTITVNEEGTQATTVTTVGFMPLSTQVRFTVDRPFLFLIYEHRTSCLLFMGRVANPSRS
UniProt Q8NC51: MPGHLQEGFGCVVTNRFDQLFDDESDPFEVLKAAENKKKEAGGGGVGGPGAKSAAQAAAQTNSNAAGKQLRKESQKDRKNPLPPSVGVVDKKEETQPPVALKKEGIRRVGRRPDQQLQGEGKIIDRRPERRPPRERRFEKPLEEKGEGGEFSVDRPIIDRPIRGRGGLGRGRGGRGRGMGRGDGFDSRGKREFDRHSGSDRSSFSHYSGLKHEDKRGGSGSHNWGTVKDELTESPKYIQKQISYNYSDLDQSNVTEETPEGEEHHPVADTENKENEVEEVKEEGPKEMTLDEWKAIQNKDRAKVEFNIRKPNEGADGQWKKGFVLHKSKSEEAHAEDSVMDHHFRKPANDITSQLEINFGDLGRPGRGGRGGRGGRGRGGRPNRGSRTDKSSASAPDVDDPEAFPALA
UniProt Q9NP50: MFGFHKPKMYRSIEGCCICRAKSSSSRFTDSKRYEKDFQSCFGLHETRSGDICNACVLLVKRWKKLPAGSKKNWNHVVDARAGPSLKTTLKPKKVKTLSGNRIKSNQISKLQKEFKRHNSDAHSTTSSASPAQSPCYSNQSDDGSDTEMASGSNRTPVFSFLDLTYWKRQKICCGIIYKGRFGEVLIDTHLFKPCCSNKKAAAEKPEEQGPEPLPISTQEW
UniProt P60059: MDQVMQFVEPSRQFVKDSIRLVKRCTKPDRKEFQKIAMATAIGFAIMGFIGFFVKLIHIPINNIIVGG
UniProt Q86XK3: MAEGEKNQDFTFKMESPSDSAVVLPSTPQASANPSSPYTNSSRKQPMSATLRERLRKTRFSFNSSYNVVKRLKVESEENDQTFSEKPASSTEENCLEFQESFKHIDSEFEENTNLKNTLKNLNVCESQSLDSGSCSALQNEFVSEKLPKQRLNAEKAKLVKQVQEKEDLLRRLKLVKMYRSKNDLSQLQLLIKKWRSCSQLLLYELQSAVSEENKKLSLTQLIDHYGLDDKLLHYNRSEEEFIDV
UniProt O43255: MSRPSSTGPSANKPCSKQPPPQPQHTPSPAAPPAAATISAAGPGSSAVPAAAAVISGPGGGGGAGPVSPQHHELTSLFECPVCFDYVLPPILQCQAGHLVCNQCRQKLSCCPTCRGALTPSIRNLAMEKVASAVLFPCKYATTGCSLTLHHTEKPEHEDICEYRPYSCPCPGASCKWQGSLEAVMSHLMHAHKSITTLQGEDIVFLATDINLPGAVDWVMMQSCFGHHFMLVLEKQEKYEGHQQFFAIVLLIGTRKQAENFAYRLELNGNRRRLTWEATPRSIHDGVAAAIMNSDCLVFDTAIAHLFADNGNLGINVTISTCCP
UniProt Q9NP31, whole entry, looked up: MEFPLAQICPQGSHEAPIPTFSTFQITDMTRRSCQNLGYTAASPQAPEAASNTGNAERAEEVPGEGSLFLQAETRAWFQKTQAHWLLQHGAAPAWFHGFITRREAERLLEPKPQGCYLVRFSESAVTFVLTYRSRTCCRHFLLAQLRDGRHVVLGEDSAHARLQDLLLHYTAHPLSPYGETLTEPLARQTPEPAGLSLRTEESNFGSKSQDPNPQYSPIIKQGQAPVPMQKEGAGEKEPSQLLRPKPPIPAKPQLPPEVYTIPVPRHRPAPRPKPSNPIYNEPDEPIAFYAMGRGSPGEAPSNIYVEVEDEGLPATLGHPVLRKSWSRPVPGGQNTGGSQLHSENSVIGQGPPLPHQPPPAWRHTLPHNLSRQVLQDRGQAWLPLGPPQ
UniProt Q8N196: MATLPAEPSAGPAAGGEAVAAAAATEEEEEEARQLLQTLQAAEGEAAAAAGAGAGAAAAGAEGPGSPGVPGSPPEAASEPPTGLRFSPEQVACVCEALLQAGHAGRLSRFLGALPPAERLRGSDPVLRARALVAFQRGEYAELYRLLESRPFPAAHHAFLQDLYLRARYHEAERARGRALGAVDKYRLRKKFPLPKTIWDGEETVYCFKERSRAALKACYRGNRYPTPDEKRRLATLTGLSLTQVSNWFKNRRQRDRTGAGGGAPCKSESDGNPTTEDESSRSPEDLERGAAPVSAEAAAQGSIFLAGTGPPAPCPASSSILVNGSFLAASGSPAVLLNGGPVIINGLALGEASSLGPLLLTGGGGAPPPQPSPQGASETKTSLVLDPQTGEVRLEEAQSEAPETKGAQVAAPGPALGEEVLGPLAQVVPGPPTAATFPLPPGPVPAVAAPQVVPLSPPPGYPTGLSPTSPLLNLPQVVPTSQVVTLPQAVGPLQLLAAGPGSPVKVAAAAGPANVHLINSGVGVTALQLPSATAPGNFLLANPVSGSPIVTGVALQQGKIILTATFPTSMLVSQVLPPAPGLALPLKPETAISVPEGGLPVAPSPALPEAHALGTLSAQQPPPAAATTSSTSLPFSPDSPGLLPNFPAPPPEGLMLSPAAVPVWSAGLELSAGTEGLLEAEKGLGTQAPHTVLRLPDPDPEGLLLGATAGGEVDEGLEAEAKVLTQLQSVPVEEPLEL
UniProt P05155: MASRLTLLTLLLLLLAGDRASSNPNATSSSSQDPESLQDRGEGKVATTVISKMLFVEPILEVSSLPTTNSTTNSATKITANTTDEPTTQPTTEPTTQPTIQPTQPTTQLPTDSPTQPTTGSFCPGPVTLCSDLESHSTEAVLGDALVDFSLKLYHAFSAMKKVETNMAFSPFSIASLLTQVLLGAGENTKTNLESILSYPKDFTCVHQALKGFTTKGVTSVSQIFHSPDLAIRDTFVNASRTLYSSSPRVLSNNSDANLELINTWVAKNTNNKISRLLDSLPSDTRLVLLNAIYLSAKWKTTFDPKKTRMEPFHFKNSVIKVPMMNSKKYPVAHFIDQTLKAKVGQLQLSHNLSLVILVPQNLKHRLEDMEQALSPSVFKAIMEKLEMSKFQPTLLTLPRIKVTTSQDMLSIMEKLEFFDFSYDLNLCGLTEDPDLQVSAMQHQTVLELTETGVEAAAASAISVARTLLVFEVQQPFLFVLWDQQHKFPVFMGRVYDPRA
UniProt Q96JX3: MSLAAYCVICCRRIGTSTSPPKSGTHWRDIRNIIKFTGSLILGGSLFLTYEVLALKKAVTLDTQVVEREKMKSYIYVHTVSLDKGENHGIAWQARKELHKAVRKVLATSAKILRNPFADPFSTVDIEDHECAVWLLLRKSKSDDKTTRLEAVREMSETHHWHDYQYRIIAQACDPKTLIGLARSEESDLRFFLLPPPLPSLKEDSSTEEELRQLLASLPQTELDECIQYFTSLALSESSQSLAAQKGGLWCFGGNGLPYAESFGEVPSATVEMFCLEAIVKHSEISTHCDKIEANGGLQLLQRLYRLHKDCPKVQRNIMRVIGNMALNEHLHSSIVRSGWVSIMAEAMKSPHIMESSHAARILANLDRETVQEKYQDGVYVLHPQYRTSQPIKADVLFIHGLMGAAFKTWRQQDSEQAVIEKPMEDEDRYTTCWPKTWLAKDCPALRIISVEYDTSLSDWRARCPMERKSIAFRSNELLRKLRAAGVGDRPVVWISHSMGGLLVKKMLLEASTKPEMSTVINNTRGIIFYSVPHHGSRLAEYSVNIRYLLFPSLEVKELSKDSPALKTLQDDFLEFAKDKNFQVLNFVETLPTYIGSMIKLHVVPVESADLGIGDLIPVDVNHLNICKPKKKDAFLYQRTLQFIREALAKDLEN

Compound in the first test: O=C1NC(=O)C(c2cnc3ccccn23)=C1c1cn2c3c(cc(F)cc13)CN(C(=O)N1CCCCC1)CC2
Put plainly: log2 fold change, soluble protein after heating vs DMSO (PISA); higher = thermal stabilisation; K562 cells, 10 uM, 30 min; active = over 0.2 and 3.5 SD of the protein, either way, in both replicates (recomputed). The method in brief:
(§1)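 For each measurement, 10 μM compound was applied for 30 min to K562 cells at 2×10^6 cells/mL. Aliquots were heated for 3 min across 48°C-58°C, pooled, and extracted in PBS with 0.5% NP-40 at 4°C; the supernatant after 21,000xg for 90 min was soluble protein. This was quantified by TMTpro 16plex LC-MS/MS with channel sums equalised, and thermal stability was reported relative to control samples from duplicates, on a log2 fold-change scale.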
With SERPINA3 (UniProt P01011), the log2 fold change is inactive: -0.135.
The same measure, in the same setting: then SEMA7A (UniProt O75326), with inactive: 0.048; and SHANK2 isoform 3 (UniProt Q9UPX8), with inactive: -0.125; and SELENOM (UniProt Q8WWX9), with inactive: 0.15.
The same measure, in the same setting: the figure for SHROOM1 (UniProt Q2M3G4) is inactive: -0.142.
As for SIVA1 (UniProt O15304), the log2 fold change was inactive: -0.128.
As to SH3BGR (UniProt P55822), the log2 fold change is inactive: 0.056.
Consider SERPIND1 (UniProt P05546), for which the log2 fold change was inactive: -0.043.
On the same count and under the same terms, then SERBP1 isoform 3 (UniProt Q8NC51), with inactive: -0.151; and SINHCAF (UniProt Q9NP50), with inactive: 0.743.
On the same count and under the same terms, the figure for SEC61G (UniProt P60059) is inactive: 0.124.
On to SERPINB6, A0A2R8Y7E5, for which the log2 fold change is inactive: -0.124.
On to SFR1 isoform 2 (UniProt Q86XK3), for which the log2 fold change is inactive: -0.18.

Compound in the next test: c1cc(OCCN2CCCCC2)cc(-c2n[nH]c3ccc(-c4nnc[nH]4)cc23)c1
The test is described as above. An outline of the steps:
as §1
Take SERPINA3 (UniProt P01011): the log2 fold change is inactive: 0.357.
For the target SIAH2 (UniProt O43255), the log2 fold change is inactive: 0.079.
With SH2D2A isoform 2 (UniProt Q9NP31), the log2 fold change is inactive: 0.08.
Still for that read-out and setting: the figure for SIX5 (UniProt Q8N196) is inactive: 0.018; for SEPTIN2 (UniProt B5MCX3) it is inactive: -0.12.
Consider SH3BGR (UniProt P55822), for which the log2 fold change was inactive: 0.017.
Consider SIGIRR (UniProt H0YDR5), for which the log2 fold change is inactive: -0.126.
Take SERPINB5 (UniProt P36952): the log2 fold change is inactive: -0.152.
The same measure, in the same setting: the figure for SERPINB7 (UniProt O75635) is inactive: 0.911; for SIRT3 (UniProt Q9NTG7) it is inactive: 0.028.
Still for that read-out and setting: then SH3GL3 isoform 3 (UniProt Q99963), with inactive: -0.071; and SERBP1 isoform 3 (UniProt Q8NC51), with inactive: -0.139; and SIK2 (UniProt Q9H0K1), with inactive: -0.34.
Same read-out and setting: then SF1 (UniProt H7C0N4), with inactive: 0.069; and SERPING1 isoform 3 (UniProt P05155), with inactive: 0.279.
Turning to SERAC1 (UniProt Q96JX3), the log2 fold change was inactive: -0.091.
As for SEC61G (UniProt P60059), the log2 fold change was inactive: -0.327.

The values above are taken from the supplement of paper PMC10849652.
